Data taken from the supplement of paper PMC10849652.
The list shows a part of the results.

Protein sequences, listed by entry. Tags and fused reporters are not part of them. Lines headed by an entry give the natural chain unless they say otherwise; changes in a name come on top.
UniProt P63241: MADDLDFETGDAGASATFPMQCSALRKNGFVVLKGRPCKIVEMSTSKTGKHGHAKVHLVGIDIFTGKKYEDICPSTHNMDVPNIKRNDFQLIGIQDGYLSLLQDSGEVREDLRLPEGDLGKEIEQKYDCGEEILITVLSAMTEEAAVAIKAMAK
UniProt P54852: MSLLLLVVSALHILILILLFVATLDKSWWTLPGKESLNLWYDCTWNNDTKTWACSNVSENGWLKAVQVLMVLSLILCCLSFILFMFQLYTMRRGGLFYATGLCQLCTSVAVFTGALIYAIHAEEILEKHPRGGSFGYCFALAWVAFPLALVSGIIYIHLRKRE
UniProt Q9GZV4: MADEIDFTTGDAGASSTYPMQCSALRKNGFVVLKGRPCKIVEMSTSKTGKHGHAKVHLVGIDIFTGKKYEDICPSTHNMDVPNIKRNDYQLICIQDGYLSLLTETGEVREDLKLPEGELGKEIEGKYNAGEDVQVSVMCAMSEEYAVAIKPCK
UniProt P06733, whole entry, looked up: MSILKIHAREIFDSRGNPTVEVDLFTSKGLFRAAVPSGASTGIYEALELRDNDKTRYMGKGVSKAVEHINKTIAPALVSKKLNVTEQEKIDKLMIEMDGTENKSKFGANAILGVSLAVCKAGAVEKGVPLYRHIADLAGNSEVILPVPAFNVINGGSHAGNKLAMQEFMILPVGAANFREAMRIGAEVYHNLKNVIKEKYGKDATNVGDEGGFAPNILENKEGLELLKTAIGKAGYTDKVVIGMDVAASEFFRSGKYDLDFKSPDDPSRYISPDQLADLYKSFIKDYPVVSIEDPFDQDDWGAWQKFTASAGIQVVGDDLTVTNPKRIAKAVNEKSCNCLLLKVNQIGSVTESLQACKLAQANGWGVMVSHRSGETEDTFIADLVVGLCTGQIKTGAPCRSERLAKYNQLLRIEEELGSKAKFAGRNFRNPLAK
UniProt P34913, whole entry, looked up: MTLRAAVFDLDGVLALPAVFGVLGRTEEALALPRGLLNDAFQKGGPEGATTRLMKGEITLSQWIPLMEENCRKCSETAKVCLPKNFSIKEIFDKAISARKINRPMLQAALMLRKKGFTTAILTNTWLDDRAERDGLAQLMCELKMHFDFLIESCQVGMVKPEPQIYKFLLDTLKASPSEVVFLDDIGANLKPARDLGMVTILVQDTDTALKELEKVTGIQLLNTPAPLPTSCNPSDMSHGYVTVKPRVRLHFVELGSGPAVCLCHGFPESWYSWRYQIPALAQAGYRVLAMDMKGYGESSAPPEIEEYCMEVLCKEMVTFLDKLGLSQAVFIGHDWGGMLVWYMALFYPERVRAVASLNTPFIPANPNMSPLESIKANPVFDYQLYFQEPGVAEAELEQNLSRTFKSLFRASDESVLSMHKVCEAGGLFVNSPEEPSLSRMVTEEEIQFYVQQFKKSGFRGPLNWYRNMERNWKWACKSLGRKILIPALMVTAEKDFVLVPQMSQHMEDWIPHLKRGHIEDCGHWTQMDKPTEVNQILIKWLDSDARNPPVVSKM
UniProt Q9NPA8: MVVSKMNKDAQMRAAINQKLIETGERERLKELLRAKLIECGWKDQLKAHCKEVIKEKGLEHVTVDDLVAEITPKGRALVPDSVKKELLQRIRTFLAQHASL
UniProt Q9BW60: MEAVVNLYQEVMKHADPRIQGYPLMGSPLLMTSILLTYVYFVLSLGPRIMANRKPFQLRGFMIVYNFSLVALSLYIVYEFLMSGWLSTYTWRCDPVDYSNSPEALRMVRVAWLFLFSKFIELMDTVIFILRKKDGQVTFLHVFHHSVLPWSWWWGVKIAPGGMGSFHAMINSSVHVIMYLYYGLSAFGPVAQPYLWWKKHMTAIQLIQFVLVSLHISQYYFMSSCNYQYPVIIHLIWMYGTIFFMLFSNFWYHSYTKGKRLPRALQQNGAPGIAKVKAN
UniProt P23588, whole entry, looked up: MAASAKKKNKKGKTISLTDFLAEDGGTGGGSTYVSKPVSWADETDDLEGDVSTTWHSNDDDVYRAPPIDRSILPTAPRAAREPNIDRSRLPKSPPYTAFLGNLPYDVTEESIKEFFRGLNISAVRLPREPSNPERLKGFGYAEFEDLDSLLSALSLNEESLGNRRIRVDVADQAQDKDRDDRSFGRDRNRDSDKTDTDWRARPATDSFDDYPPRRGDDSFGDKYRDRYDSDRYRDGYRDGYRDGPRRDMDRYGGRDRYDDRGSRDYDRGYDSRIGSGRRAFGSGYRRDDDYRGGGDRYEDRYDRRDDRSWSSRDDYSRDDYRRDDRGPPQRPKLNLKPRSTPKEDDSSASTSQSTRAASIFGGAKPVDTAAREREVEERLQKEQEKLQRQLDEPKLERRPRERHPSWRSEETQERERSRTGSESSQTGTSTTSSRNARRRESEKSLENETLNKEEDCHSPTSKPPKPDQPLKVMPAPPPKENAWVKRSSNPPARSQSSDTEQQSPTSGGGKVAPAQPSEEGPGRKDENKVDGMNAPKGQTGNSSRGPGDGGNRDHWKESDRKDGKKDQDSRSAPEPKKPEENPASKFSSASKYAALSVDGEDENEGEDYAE
UniProt Q6ZTU2, whole entry, looked up: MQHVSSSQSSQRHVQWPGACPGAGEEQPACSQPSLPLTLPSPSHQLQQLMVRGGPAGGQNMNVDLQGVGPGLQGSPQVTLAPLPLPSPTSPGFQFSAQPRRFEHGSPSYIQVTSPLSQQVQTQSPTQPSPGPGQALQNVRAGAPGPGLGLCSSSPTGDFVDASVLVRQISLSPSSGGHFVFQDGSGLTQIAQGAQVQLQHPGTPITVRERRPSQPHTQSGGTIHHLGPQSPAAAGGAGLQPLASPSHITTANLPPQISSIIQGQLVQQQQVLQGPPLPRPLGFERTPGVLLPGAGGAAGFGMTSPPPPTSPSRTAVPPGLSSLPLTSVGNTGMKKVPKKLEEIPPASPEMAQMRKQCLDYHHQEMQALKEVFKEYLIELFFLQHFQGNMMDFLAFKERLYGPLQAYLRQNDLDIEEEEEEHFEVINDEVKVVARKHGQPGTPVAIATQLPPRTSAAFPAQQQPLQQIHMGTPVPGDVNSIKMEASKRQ
UniProt Q13541: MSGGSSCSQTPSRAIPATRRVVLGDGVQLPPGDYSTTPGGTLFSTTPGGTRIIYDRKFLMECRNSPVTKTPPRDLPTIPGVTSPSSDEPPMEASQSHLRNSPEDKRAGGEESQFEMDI
UniProt Q8IV48: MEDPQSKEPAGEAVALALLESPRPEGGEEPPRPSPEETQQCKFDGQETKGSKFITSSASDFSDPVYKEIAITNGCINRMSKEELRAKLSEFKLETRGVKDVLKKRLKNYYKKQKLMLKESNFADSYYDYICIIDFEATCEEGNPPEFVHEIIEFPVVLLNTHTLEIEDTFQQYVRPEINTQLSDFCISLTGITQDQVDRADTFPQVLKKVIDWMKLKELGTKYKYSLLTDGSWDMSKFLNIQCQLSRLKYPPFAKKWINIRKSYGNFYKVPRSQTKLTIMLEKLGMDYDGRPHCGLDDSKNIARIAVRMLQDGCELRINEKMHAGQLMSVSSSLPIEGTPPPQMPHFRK
UniProt Q96L91, whole entry, looked up: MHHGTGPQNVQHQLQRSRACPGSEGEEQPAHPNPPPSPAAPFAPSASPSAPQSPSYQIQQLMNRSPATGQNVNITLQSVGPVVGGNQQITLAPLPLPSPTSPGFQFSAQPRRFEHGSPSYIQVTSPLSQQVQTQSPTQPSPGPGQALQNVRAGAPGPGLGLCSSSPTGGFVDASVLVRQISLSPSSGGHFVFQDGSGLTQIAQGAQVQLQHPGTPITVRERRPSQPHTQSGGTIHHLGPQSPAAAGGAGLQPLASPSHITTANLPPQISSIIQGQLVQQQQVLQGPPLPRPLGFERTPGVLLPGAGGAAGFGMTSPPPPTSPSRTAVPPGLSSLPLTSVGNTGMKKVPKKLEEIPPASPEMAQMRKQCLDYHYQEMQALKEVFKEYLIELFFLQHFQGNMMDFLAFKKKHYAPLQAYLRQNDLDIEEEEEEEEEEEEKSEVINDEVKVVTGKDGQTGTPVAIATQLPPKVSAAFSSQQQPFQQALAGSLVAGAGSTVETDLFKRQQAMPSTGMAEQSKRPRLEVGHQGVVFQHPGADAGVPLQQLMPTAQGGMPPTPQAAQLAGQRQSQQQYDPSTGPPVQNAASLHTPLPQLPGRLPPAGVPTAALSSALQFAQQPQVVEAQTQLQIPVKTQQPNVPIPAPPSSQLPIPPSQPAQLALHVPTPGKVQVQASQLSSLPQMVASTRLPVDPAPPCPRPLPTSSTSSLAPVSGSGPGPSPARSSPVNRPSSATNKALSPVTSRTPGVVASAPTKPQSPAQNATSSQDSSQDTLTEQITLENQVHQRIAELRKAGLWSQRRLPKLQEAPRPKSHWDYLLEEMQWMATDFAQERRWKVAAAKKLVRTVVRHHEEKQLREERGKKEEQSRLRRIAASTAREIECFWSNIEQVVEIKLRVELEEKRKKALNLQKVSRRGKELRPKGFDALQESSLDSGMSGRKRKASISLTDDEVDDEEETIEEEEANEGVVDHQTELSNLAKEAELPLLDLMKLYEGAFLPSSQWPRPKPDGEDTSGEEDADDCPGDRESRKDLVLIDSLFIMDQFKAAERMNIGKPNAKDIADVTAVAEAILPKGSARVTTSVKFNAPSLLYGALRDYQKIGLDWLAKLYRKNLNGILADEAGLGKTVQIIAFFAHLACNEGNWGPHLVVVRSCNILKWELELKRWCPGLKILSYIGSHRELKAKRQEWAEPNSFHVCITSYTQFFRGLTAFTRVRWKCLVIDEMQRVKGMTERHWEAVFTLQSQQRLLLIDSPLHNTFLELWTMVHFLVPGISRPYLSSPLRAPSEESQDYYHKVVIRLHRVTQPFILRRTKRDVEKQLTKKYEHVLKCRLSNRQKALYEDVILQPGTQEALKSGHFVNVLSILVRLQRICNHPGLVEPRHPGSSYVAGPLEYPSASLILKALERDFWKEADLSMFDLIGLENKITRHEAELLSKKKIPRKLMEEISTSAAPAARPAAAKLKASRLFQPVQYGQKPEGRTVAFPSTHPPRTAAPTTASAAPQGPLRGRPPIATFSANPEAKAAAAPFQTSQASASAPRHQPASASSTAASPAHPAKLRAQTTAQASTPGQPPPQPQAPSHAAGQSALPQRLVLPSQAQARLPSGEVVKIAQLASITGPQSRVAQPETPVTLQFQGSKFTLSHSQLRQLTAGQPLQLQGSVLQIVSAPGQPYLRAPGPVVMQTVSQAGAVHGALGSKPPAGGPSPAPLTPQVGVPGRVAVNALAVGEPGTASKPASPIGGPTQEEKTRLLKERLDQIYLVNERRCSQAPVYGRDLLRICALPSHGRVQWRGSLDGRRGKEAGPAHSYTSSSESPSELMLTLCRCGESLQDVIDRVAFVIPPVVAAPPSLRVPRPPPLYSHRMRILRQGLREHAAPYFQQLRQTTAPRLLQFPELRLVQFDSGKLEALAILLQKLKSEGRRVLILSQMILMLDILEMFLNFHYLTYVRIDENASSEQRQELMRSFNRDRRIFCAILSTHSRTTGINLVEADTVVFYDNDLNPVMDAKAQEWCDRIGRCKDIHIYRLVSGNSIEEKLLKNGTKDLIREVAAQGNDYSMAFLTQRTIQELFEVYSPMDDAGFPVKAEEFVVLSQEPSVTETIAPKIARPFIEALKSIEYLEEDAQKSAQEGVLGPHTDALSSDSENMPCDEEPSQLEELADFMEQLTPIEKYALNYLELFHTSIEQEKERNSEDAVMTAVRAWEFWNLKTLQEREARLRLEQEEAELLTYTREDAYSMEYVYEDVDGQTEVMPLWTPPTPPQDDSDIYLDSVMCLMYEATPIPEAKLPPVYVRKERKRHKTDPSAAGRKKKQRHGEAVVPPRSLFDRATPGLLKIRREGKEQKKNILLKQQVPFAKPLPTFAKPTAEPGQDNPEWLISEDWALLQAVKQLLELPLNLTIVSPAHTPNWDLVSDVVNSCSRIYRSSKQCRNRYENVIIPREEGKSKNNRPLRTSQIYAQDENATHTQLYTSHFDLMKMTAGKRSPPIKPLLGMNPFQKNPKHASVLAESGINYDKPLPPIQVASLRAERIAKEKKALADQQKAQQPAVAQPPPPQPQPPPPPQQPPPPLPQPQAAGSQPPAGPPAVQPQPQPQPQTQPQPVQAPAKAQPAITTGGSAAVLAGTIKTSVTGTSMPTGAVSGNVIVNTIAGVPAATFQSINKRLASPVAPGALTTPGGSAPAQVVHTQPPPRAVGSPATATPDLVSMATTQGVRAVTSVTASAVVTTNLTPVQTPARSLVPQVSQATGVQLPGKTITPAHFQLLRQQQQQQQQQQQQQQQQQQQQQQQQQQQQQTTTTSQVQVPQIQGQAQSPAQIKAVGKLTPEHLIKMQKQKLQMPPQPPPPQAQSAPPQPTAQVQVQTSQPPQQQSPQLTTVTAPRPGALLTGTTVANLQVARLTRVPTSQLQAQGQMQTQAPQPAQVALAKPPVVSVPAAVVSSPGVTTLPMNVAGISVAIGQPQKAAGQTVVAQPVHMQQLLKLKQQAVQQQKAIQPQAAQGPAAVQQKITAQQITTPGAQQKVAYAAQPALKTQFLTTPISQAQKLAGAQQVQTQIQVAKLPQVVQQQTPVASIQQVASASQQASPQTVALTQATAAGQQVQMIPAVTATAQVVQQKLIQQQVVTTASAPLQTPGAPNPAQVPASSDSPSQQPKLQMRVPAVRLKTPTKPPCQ

How the values were obtained:
Assay in all cases: log2 fold change, soluble protein after heating vs DMSO (PISA); higher = thermal stabilisation; K562 lysate, 10 uM; active = over 0.2 and 3.5 SD of the protein, either way, in both replicates (recomputed)
[1] = compound: CCCS(=O)(=O)Nc1ccc(F)c(C(=O)c2c[nH]c3ncc(-c4ccc(Cl)cc4)cc23)c1F [vemurafenib]
Summary of the method: (§1)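 To prepare the extract, K562 pellets were dounce-homogenised in PBS pH 7.4 with 1 mM MgCl2, giving crude material at 1 mg/mL protein. This was treated with 10 μM compound for 30 min, then heated in aliquots for 3 min over 48°C-58°C before pooling and addition of NP-40 to 0.5% at 4°C. Centrifugation at 21,000xg for 90 min left soluble protein in the supernatant, which TMTpro 16plex LC-MS/MS quantified with equalised channel sums. Results are log-two fold changes in thermal stability compared with solvent controls, from duplicates.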

[2] = compound: CCCS(=O)(=O)Nc1ccc(F)c(C(=O)c2c[nH]c3ncc(Cl)cc23)c1F
Summary of the method: as §1

[3] = compound: CCN(CCCOc1ccc2c(Nc3cc(CC(=O)Nc4cccc(F)c4)[nH]n3)ncnc2c1)CCOP(=O)(O)O [barasertib]
Summary of the method: as §1

[4] = compound: CC[C@@H]1C(=O)N(C)c2cnc(Nc3ccc(C(=O)NC4CCN(C)CC4)cc3OC)nc2N1C1CCCC1
Summary of the method: as §1

[5] = compound: CC[C@@H]1C(=O)N(C)c2cnc(Nc3ccc(C(=O)N[C@H]4CC[C@H](N5CCN(CC6CC6)CC5)CC4)cc3OC)nc2N1C(C)C [volasertib]
Summary of the method: as §1

[6] = compound: CCn1c(C(=O)N(C2CC2)C2CC2)cc2c3c(ncn3C)c(Nc3cc(C)n(C)n3)nc21
Summary of the method: as §1

[7] = compound: CCn1cc(-c2ccnc3[nH]c(-c4cccc(CN(C)C)c4)cc23)c(-c2ccc(NC(=O)N(C)C)cc2)n1
Summary of the method: as §1

[8] = compound: CN1CCC(CNc2ccc3ncc(-c4cccc(OC(F)(F)F)c4)n3n2)CC1
Summary of the method: as §1

[9] = compound: CN1CCN(CCOc2cc(OC3CCOCC3)c3c(Nc4c(Cl)ccc5c4OCO5)ncnc3c2)CC1 [saracatinib]
Summary of the method: as §1

[10] = compound: CN1CCN(c2nc(C3=C(c4c[nH]c5ccccc45)C(=O)NC3=O)c3ccccc3n2)CC1 [sotrastaurin]
Summary of the method: as §1

Target | log2 fold change [1] | log2 fold change [2] | log2 fold change [3] | log2 fold change [4] | log2 fold change [5] | log2 fold change [6] | log2 fold change [7] | log2 fold change [8] | log2 fold change [9] | log2 fold change [10]
ERAL1 (UniProt O75616) | inactive: -0.058 | inactive: -0.016 | inactive: -0.032 | inactive: 0.065 | inactive: -0.046 | inactive: 0.059 | inactive: -0.065 | active: -0.359 | inactive: -0.035 | inactive: 0.02
EMC1 (UniProt Q8N766) | inactive: 0.012 | inactive: -0.005 | inactive: 0.022 | inactive: -0.048 | inactive: 0.005 | inactive: -0.012 | inactive: -0.108 | inactive: 0.036 | inactive: -0.005 | inactive: 0.038
EPRS (UniProt P07814) | inactive: 0.01 | inactive: -0.001 | inactive: 0.001 | inactive: -0.077 | inactive: -0.068 | inactive: 0.024 | inactive: -0.025 | inactive: -0.035 | inactive: 0.014 | inactive: 0.02
EIF5A isoform 2 (UniProt P63241) | inactive: -0.01 | inactive: -0.019 | inactive: -0.004 | inactive: 0.05 | inactive: 0.036 | inactive: -0.049 | inactive: 0.088 | inactive: -0.029 | inactive: -0.022 | inactive: -0.039
EIF2B5 (UniProt Q13144) | inactive: -0.007 | inactive: 0.019 | inactive: 0.013 | inactive: -0.012 | inactive: -0.027 | inactive: 0.021 | inactive: -0.065 | inactive: -0.057 | inactive: 0.009 | inactive: 0.038
EIF4A2 isoform 2 (UniProt Q14240) | inactive: -0.048 | inactive: -0.002 | inactive: -0.026 | inactive: -0.076 | inactive: -0.017 | inactive: 0.023 | inactive: -0.072 | inactive: 0.053 | inactive: 0.01 | inactive: 0.006
EMP3 (UniProt P54852) | inactive: 0.022 | inactive: -0.002 | inactive: 0.005 | inactive: 0.066 | inactive: 0.124 | inactive: -0.112 | active: -0.967 | active: 0.365 | inactive: 0.049 | inactive: -0.029
ELMOD2 (UniProt Q8IZ81) | inactive: 0.011 | inactive: 0.003 | inactive: 0.007 | inactive: 0.061 | inactive: -0.037 | inactive: 0.015 | inactive: 0.071 | inactive: -0.05 | inactive: 0.023 | inactive: 0.034
EIF5A2 (UniProt Q9GZV4) | inactive: 0.161 | inactive: 0.002 | inactive: -0.001 | inactive: 0.02 | inactive: -0.049 | inactive: -0.073 | inactive: -0.32 | inactive: 0.101 | inactive: -0.012 | inactive: 0.04
ERCC3 (UniProt P19447) | inactive: -0.014 | inactive: -0.009 | inactive: 0.11 | inactive: -0.008 | inactive: 0.004 | inactive: 0.016 | inactive: -0.046 | inactive: -0.096 | inactive: -0.029 | inactive: 0.021
ENO1 isoform 2 (UniProt P06733) | inactive: 0.02 | inactive: -0.005 | inactive: -0.09 | inactive: 0.073 | inactive: 0.004 | inactive: -0.021 | inactive: -0.263 | active: 0.269 | inactive: 0.01 | inactive: 0.01
ERCC2 (UniProt P18074) | inactive: -0.01 | inactive: 0.001 | inactive: 0.089 | inactive: -0.077 | inactive: -0.043 | inactive: 0 | inactive: 0.06 | inactive: -0.067 | inactive: 0 | inactive: 0.06
EPHX2 (UniProt P34913) | inactive: -0.026 | inactive: -0.01 | inactive: -0.026 | inactive: 0.016 | inactive: 0.041 | inactive: -0.004 | inactive: -0.044 | inactive: 0.119 | inactive: -0.018 | inactive: 0.06
EPB41L3 (UniProt Q9Y2J2) | inactive: -0.093 | inactive: 0.003 | inactive: -0.024 | inactive: 0.045 | inactive: 0.006 | inactive: 0.165 | inactive: 0.035 | inactive: 0.006 | inactive: 0.009 | inactive: 0.008
ENY2 (UniProt Q9NPA8) | inactive: -0.057 | inactive: 0.016 | inactive: 0.072 | inactive: -0.036 | inactive: 0.033 | inactive: 0.048 | active: 0.886 | active: -0.406 | inactive: -0.003 | inactive: -0.003
ELOB (UniProt Q15370) | inactive: -0.016 | inactive: -0.018 | inactive: 0.145 | inactive: 0.041 | inactive: 0.046 | inactive: 0 | inactive: -0.087 | inactive: -0.013 | inactive: -0.016 | inactive: -0.045
EOGT (UniProt Q5NDL2) | inactive: 0.007 | inactive: 0.032 | inactive: 0.059 | inactive: 0.031 | inactive: 0.003 | inactive: -0.018 | inactive: 0.029 | inactive: -0.005 | inactive: 0.008 | inactive: 0.031
ELOVL1 (UniProt Q9BW60) | inactive: 0.003 | inactive: 0.026 | inactive: 0.046 | inactive: 0.119 | inactive: -0.067 | inactive: 0.081 | inactive: 0.03 | inactive: 0.005 | inactive: -0.055 | inactive: -0.011
EIF4B (UniProt P23588) | inactive: 0.028 | inactive: -0.004 | inactive: -0.024 | inactive: -0.008 | inactive: 0.017 | inactive: -0.025 | inactive: -0.07 | inactive: 0.045 | inactive: 0.001 | inactive: -0.013
EML4 (UniProt Q9HC35) | inactive: 0.011 | inactive: 0.004 | inactive: 0 | inactive: -0.01 | inactive: 0.003 | inactive: 0.014 | inactive: -0.018 | inactive: 0.046 | inactive: 0.001 | inactive: 0.018
EP400P1 isoform 6 (UniProt Q6ZTU2) | inactive: 0.146 | inactive: 0.067 | inactive: 0.006 | inactive: 0.001 | inactive: -0.022 | inactive: 0.013 | inactive: -0.032 | inactive: 0.107 | inactive: 0.082 | inactive: 0.049
EIF4EBP1 (UniProt Q13541) | inactive: -0.048 | inactive: -0.02 | inactive: 0.114 | inactive: -0.004 | inactive: 0.048 | inactive: -0.055 | inactive: -0.001 | inactive: -0.122 | inactive: -0.026 | inactive: 0.047
ERI1 (UniProt Q8IV48) | inactive: 0.01 | inactive: 0.01 | inactive: 0.008 | inactive: -0.018 | inactive: -0.023 | inactive: -0.008 | inactive: 0.065 | inactive: -0.112 | inactive: -0.006 | inactive: 0.034
EIF4A3 (UniProt P38919) | inactive: 0.01 | inactive: 0.017 | inactive: 0.026 | inactive: -0.035 | inactive: -0.023 | inactive: 0.026 | inactive: -0.165 | inactive: 0.049 | inactive: -0.008 | inactive: 0.025
EPPK1 (UniProt P58107) | inactive: 0.059 | inactive: 0.037 | inactive: 0.068 | inactive: -0.064 | inactive: -0.008 | inactive: 0.063 | inactive: -0.048 | inactive: -0.038 | inactive: 0.05 | inactive: 0.022
EP400 isoform 5 (UniProt Q96L91) | inactive: -0.021 | inactive: -0.007 | inactive: -0.015 | inactive: 0.044 | inactive: -0.042 | inactive: -0.023 | inactive: -0.007 | inactive: 0.011 | inactive: 0.01 | inactive: -0.012
EIF3F (UniProt O00303) | inactive: -0.002 | inactive: -0.006 | inactive: 0.019 | inactive: -0.061 | inactive: -0.039 | inactive: 0.018 | inactive: 0.188 | inactive: -0.078 | inactive: 0 | inactive: 0.038
EIF2S3 (UniProt P41091) | inactive: -0.017 | inactive: -0.015 | inactive: -0.019 | inactive: 0.007 | inactive: 0.007 | inactive: -0.025 | inactive: 0.035 | inactive: -0.04 | inactive: -0.023 | inactive: -0.018
EIF4ENIF1 isoform 3 (UniProt Q9NRA8) | inactive: 0.058 | inactive: -0.061 | inactive: 0.014 | inactive: 0.068 | inactive: -0.031 | inactive: 0.012 | inactive: -0.083 | inactive: 0 | inactive: 0.08 | inactive: -0.053

Complete entries from above. Order of values: log2 fold change [1]	log2 fold change [2]	log2 fold change [3]	log2 fold change [4]	log2 fold change [5]	log2 fold change [6]	log2 fold change [7]	log2 fold change [8]	log2 fold change [9]	log2 fold change [10]
ERAL1 (UniProt O75616) in the list: inactive: -0.058	inactive: -0.016	inactive: -0.032	inactive: 0.065	inactive: -0.046	inactive: 0.059	inactive: -0.065	active: -0.359	inactive: -0.035	inactive: 0.02
EP400P1 isoform 6 (UniProt Q6ZTU2) in the list: inactive: 0.146	inactive: 0.067	inactive: 0.006	inactive: 0.001	inactive: -0.022	inactive: 0.013	inactive: -0.032	inactive: 0.107	inactive: 0.082	inactive: 0.049
